The target of test [1] is T1, cynomolgus PD-L1 on the cell surface (cynomolgus, UniProt G7PSE7 19-290).
T1 construct: also called cell surface cynomolgus PD-L1
As to the kind of experiment: FACS on cells expressing cynomolgus PD-L1.

The target of test [2] is T1, cynomolgus PD-L1 on the cell surface. As to the kind of experiment: FACS on cells expressing cynomolgus PD-L1, goat anti-human IgG Fc FITC. As for the experimental part:
Cross-reactivity was measured by FACS. […] Testing antibodies were diluted in wash buffer (1><PBS/1% BSA) and incubated with cells at 4° C. for 1 hour. After washing, the secondary antibody goat anti-human IgG Fc FITC (Jackson ImmunoResearch Lab) was added and incubated at 4° C. in the dark for 1 hour. The cells were then washed once and resuspended in 1><PBS/1% BSA, and analyzed by flow cytometry (BD).

Results are given in words; binding and its absence hold for the method and conditions named. Some results given as binding are weak or reduced against the parent protein; the word gives no strength.

B1: W3152-r11.135.5-zAb17-m6-uIgG4L (antibody, V domains shown)
VH: QVQLQESGPGLVKPSETLSLTCTVSGFSLTENSVSWIRQPPGKGLEWIGAVWSSGSTDYNSALKSRVTISRDTSKNQFSLKLSSVTAADTAVYYCTRSTYSNDFYYYFDYWGQGTMVTVSS
VL: SYELTQPPSVSVSPGQTASITCSGSELPKRYAYWYQQKPGQSIVRVIYKDSERPSGISERFSGSSSGNTATLTISGTQAMDEADYYCSSTYGDRKLPIFGGGTKLTVLG
notes: also called W3152-r11.135.5-zAb17-m6-IgG4L
With B1, the binding result in test [1] and in test [2] was “binds” in each case.

The values are drawn from patent US20220332827A1 (WUXI BIOLOGICS IRELAND, published 2022).
